Assay results reported in PubChem BioAssay AID2685 (National Center for Advancing Translational Sciences (NCATS), 2010).
The campaign covered roughly 320,000 compounds. About 2,100 (0.66%) were called active. The inconclusive results got no clear call from the source; some entries with a clear call stand among them for comparison. Calls follow the shape of the dose curve; as a rule, active = well fitted inhibition curve with a large enough effect in the signal ratio, with a control signal flat (not every such curve was filed as active); inconclusive = small, poorly fitted or top-dose-only effect, or effect the other way, or a change in a side signal; inactive = flat fitted curve, though single readings scatter; the % refers to the signal ratio. Potencies of inconclusive entries are doubtful fits and often do not repeat.

experiment: qHTS Assay for Lipid Storage Modulators in Drosophila S3 Cells; conditions: BODIPY lipid droplet fluorescence, 18-24 h, cells fed with added oleic acid; lipid storage change, negative = inhibition: at 46.1 µM (top of the series) unless noted
How it was run: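 Drosophila S3 cells got compounds at several concentrations plus oleic acid (400 uM solution). Laser-scanning cytometry with 488 nm excitation read lipid droplets at 500-530 nm and cells at 575-640 nm. Percent activity was relative to 20 uM Triacsin C.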
% is scaled to controls: 0 for no effect and ±100 for the full control effect; potency is read from the fitted curve at half-maximal effect.

Structure (SMILES)	lipid storage change, negative = inhibition	Potency
Cc1ccc(-n2cc(-c3ccccc3)c3c(=O)[nH]cnc32)cc1	inconclusive: 10.9%	–
Cn1c(=O)c2ccccc2n(CC(=O)NC2CCCCC2)c1=O	inconclusive: 12.4%	–
CCc1cc(=O)[nH]c(SCc2cccc3ccccc23)n1	inconclusive: -25%	–
CCn1nc(C)cc1C(=O)N1CCCC(N2CCN(c3cccc(Cl)c3)CC2)C1 (configuration not stated)	inconclusive: 6.99%	–
COc1ccc(N(CCCN2C(=O)c3cccc4cccc(c34)C2=O)C(=O)c2cccc(OC)c2)cc1	inconclusive: -14.8%	–
COc1ccc(Cl)cc1NC(=S)NCCN1CCOCC1	inconclusive: -27.8%	–
O=C(CCCNS(=O)(=O)c1ccc(Br)cc1)N1CC[C@@]2(O)CCCC[C@H]2C1	–	inconclusive: 0.206 µM [falling, partial curve, poor fit]
O=C(NCCc1cccc(F)c1)C1CCC(=O)N(CCCc2ccccc2)C1 (configuration not stated)	–	inconclusive: 0.58 µM [activator, single point]
O=C(NCC1CCCN(Cc2ccc3c(c2)OCCO3)C1)c1ccc2c(c1)OCO2 (configuration not stated)	inconclusive: 4.26%	–
COC(=O)c1ccc(C(C(=O)NC2CCCCC2)N(CCc2ccccc2)C(=O)Cc2cccs2)cc1 (configuration not stated)	inconclusive: -20.4%	–
CCOC(=O)CNC(=O)Cn1c(C)cc2ccccc2c1=O	–	inconclusive: 1.3 µM [falling, partial curve, poor fit]
CN(C)CCCNC(=S)NCC(c1ccc(Cl)cc1Cl)c1c[nH]c2ccccc12 (configuration not stated)	inconclusive: -100%	–
CCCn1c(N)c(Sc2ccc([N+](=O)[O-])cc2)c(=O)n(CCC)c1=O	inconclusive: -6.33%	–
O=C1NCC(COCc2ccco2)O1 (configuration not stated)	–	active: 16.4 µM
CC(=O)N1CCN(C(=S)NC(=O)C23CC4CC(CC(C4)C2)C3)CC1	inconclusive: 27.5%	–
CCOc1ccc(N2C(=O)CNC2=S)cc1	–	inconclusive: 18.4 µM [falling, partial curve]
CC(=O)c1cccc(N(CC(=O)Nc2ccc(S(=O)(=O)N3CCCC3)cc2)S(C)(=O)=O)c1	–	inconclusive: 0.326 µM [falling, full curve]
COc1ccc(-c2ocnc2C(=O)Nc2ccc(N3CCOCC3)cc2N2CCOCC2)cc1OC	inconclusive: 15.6%	–
Cc1ccnc(NC(=O)c2ccc(S(=O)(=O)N3CCC(C)CC3)cc2)c1	inconclusive: 36.3%	–
CCOC(=O)c1ccc(NC(=O)CSc2nnc(NC(=O)c3ccc(S(=O)(=O)N4CCOCC4)cc3)s2)cc1	inconclusive: 17.5% [cytotoxic]	–
c1ccc(CN2CN=C(Nc3nc4ccccc4s3)NC2)cc1	–	inconclusive: 0.651 µM [activator, single point]
Cc1ccc(C)c(S(=O)(=O)N2CCC3(CC2)OCCO3)c1	inconclusive: 31.1%	–
CN(C(=O)c1ccc(NC(=O)Cc2cccc(NC(=O)C3CCN(C(=O)C4CC4)CC3)c2)cc1)C1CCCC1	inconclusive: 31.4%	–
CC(C)C(NC(=O)c1ccco1)C(=O)NCc1ccc(C(=O)O)cc1 (configuration not stated)	–	active: 6.51 µM

Sorted by molecular weight (largest number first): 4 of the compounds above
Structure (SMILES)	lipid storage change, negative = inhibition	Potency
CCOC(=O)c1ccc(NC(=O)CSc2nnc(NC(=O)c3ccc(S(=O)(=O)N4CCOCC4)cc3)s2)cc1	inconclusive: 17.5% [cytotoxic]	–
CN(C(=O)c1ccc(NC(=O)Cc2cccc(NC(=O)C3CCN(C(=O)C4CC4)CC3)c2)cc1)C1CCCC1	inconclusive: 31.4%	–
CCn1nc(C)cc1C(=O)N1CCCC(N2CCN(c3cccc(Cl)c3)CC2)C1 (configuration not stated)	inconclusive: 6.99%	–
O=C1NCC(COCc2ccco2)O1 (configuration not stated)	–	active: 16.4 µM

(further entries)

Structure (SMILES)	lipid storage change, negative = inhibition	Potency
N#Cc1ccccc1NC(=O)CSc1n[nH]c(-c2ccco2)n1	inconclusive: 14.8%	–
CCc1ccccc1NC(=O)c1ccc2nc(N3CCOCC3)sc2c1	inconclusive: -11.2%	–
COc1cccc(C(C(=O)NC2CCCC2)N(C(=O)CNC(=O)c2ccco2)c2cccnc2)c1 (configuration not stated)	inconclusive: 287%	–
Cc1cccc(N2CCN(C(=O)CSc3ccsc3[N+](=O)[O-])CC2C)c1 (configuration not stated)	inconclusive: -35.9%	–
COc1cc(C2c3c(oc4ccccc4c3=O)C(=O)N2Cc2ccncc2)ccc1O (configuration not stated)	–	inconclusive: 16.4 µM [activator, partial curve]
CC(=O)N/N=C/c1cc(C(C)(C)C)cc(/C=N/NC(C)=O)c1O	–	inconclusive: 32.6 µM [falling, single point]
CCC(=O)Nc1ccc2c(c1)C(=O)c1ccccc1C2=O	inconclusive: -33.9%	–
O=C(COC(=O)/C=C/c1ccccc1)NCc1ccc(Cl)cc1	inconclusive: 40.9%	–
COc1cc(/C=C2\SC(=S)N(CCC(=O)Nc3ccccn3)C2=O)cc(OC)c1OC	–	inconclusive: 6.51 µM [falling, single point]
CCOC(=O)C1=C(O)/C(=C\c2sccc2C)N=C1C	inconclusive: -77.6%	–
COc1ccccc1S(=O)(=O)NCc1ccc(C(=O)NC2CCC(O)CC2)cc1 (configuration not stated)	inconclusive: -6.21%	–
CN(c1ccccc1)S(=O)(=O)c1ccc(Cl)c(C(=O)Nc2ccncc2)c1	–	inconclusive: 6.51 µM [falling, partial curve, poor fit]
Cc1ccccc1NC(=O)CS(=O)(=O)c1cn(CC(=O)N2CCOCC2)c2ccccc12	inconclusive: 5.34%	–
COc1ccc(N2CC(C(=O)OCC(=O)c3ccccc3)CC2=O)cc1 (configuration not stated)	inconclusive: -3.16%	–
COc1ccc(C(=O)N/N=C(/C)c2cccc(NC(=O)C(F)(F)F)c2)cc1	inconclusive: 1.41%	–
COc1cc(C(C)=O)ccc1OCC(=O)Nc1ccc(Cl)c(S(=O)(=O)N2CCOCC2)c1	–	inconclusive: 29.1 µM [falling, single point]
CCOC(=O)c1[nH]cnc1C(=O)N1CCN(C(=O)OC(C)(C)C)CC1	–	inconclusive: 0.92 µM [activator, full curve, poor fit]
CCOc1ccc(/C=N/n2nnnc2N)cc1O	inactive: -6.33%	–
N#Cc1ccc(NC(=O)Cn2cnc(S(=O)(=O)N3CCc4ccccc43)c2)cc1	inconclusive: 29.4%	–
Cc1ccc(C)c(S(=O)(=O)N2CCN(Cc3cc4c(cc3O)OCO4)CC2)c1	inconclusive: 18.7%	–
Cc1cccc2cc(/C=N/NC(=O)CN3CCOCC3)c(Cl)nc12	inconclusive: 11.7%	–
CCOC(=O)c1cnc2c(CC)cccc2c1NCCCN1CCOCC1	–	inconclusive: 0.82 µM [falling, full curve]
CCOc1ccccc1NC(=S)N1CCN(c2cccc(OC)c2)CC1	–	inconclusive: 1.16 µM [activator, full curve]
COc1ccccc1C(=O)Oc1cc(N)n(S(=O)(=O)c2ccc(C)cc2)n1	inconclusive: -18.7%	–

Structure (SMILES)	lipid storage change, negative = inhibition	Potency
Cc1nn(C)c(C)c1C(C)NC(=O)c1ccc(OC2CCN(Cc3ccccn3)CC2)cc1 (configuration not stated)	–	inconclusive: 6.51 µM [falling, partial curve, poor fit]
C/C(=N\NC(=S)NC(C)C)c1cccc([N+](=O)[O-])c1	–	inconclusive: 9.2 µM [activator, partial curve]
COc1cc(C(=O)NNC(=O)c2cc(C)[nH]n2)cc(OC)c1OC	–	inconclusive: 29.1 µM [rising, partial curve, poor fit]
CC(=O)c1[nH]c(C)c(C(=O)N2CCCC(Nc3ccc(C(C)C)cc3)C2)c1C (configuration not stated)	–	inconclusive: 29.1 µM [activator, single point]
COC(=O)C(Cc1ccc(O)cc1)NC(=O)CCC(=O)Nc1ccc(S(N)(=O)=O)cc1 (configuration not stated)	–	inconclusive: 0.13 µM [activator, full curve, poor fit]
Cc1nn(-c2cccc(C(F)(F)F)c2)c(Cl)c1/C=N/n1cnnc1	inconclusive: 52.1%	–
CCNS(=O)(=O)c1ccc(NC(=O)CC(C)c2ccccc2)cc1 (configuration not stated)	inconclusive: 15.9%	–
CC(OC(=O)c1ccco1)C(=O)Nc1ncc(Cl)cc1Cl (configuration not stated)	inconclusive: -3.02%	–
COc1cccc(-n2c(Cc3cc(=O)[nH]c(=O)[nH]3)nnc2SCC(=O)N2CCC(C)CC2)c1	–	inconclusive: 20.6 µM [falling, single point]
CCN(C1CCCCC1)S(=O)(=O)c1cc(C)ccc1OC	inconclusive: 16.3%	–
COc1cccc(N/C(SCc2ccccc2F)=C(/C#N)C(=O)NCc2cccs2)c1	inconclusive: 21.1%	–
O=c1c2ccccc2[nH]c(=S)n1CCCN1CCOCC1	inconclusive: 46.5%	–
CCOC(=O)C1CCN(C(=O)c2cccc(NC3=NC4CS(=O)(=O)CC4S3)c2)CC1 (configuration not stated)	–	inconclusive: 0.0731 µM [falling, full curve, poor fit]
COc1ccc(CC(=O)Nc2sc3c(c2C#N)CC(C)(C)NC3(C)C)cc1OC	–	inconclusive: 20.6 µM [activator, partial curve, poor fit]
CCOc1ccc(/C=N/NC(=O)c2nnn(-c3nonc3N)c2-c2cccs2)cc1	inconclusive: 24.1%	–
CCOc1ccc(N2CC(C(=O)NC3CCCCCC3)CC2=O)cc1 (configuration not stated)	inconclusive: -60.5%	–
Cc1cc(NC(=O)C2(c3ccccc3)CCCC2)no1	–	inconclusive: 1.84 µM [activator, partial curve]
O=C1OCC2=C1C(c1ccccc1)CC(=O)N2c1ccccc1 (configuration not stated)	inconclusive: -11.4%	–
CCOC(=O)c1cnc(Nc2nc3ccccc3o2)nc1CN1CCN(C)CC1	inconclusive: -23.3%	–
CC1(C)O[C@@H]2[C@H](O1)[C@@H](COS(=O)(=O)O)O[C@H]2n1c(=S)[nH]c2c(=O)[nH]c(N)nc21	inconclusive: 8.21%	–
COc1ccc(-c2nnc(NC(=O)C3=COCCO3)o2)cc1	–	inconclusive: 29.1 µM [activator, single point]
CCOc1ccc(S(=O)(=O)n2nc(C)cc2C)cc1	–	inconclusive: 6.51 µM [falling, single point]
CN(C)c1cccc(C(=O)OC(C(=O)Nc2ccc(Cl)cc2C(F)(F)F)c2ccccc2)c1 (configuration not stated)	inconclusive: 2.47%	–
C=C(C)C1CC=C(C)/C(=N/NC(=O)CCC(=O)Nc2ccccc2Cl)C1 (configuration not stated)	inconclusive: -9.92%	–
